Reference: patent publication US20140011978A1
No constants are given. Whether binding was seen depends on the method and setting.

Tests used:
Assay in all cases: ELISA: growth factor coated, Fg fragment in solution, A450 (methods analogous to Example 3)
NGF = target: NGF
FGF-1 = target: FGF-1
IGFBP-1 = target: IGFBP-1
BMP-7 = target: BMP-7
VEGF-A121 = target: VEGF-A121
IGF-I = target: IGF-I
PDGF-CC = target: PDGF-CC

Measured: binding

B1: Fg β15-66 (protein)
chain: GSNQEQVSPLGHRPLDKKREEAPSLRPAPPPISGGGYRARPAKAAATQKKVERKAPDAGGCGHHHHHH
no binding: all assays above

B2: Fg β1-66 (protein)
fibrinogen Bβ chain fragment: QGVNDNEEGFFSARGHRPLDKKREEAPSLRPAPPPISGGGYRARPAKAAATQKKVERKAPDAGGCG
no binding: all assays above
